The test has as its target GFP-MED15CC (human MED15 prion-like domain, MED15-PrLD, residues 141-316, fused at the C-terminus of GFP) (human). Nature of the test: in vitro aggregation (synchronous light scattering, GFP fluorescence of the supernatant after centrifugation); 5 uM protein, 37 °C without agitation, 9 h, 20 mM Tris, 150 mM NaCl, with 2 M urea; both purified.

These are yes or no findings as the source states them, for the method shown. Tags and fused reporters may be left off the sequences shown.

B1: GFP-MED15CC (human MED15 prion-like domain, MED15-PrLD, residues 141-316, fused at the C-terminus of GFP) (domain or fragment)
chain: MAVVSTATPQTQLQLQQVALQQQQQQQQFQQQQQAALQQQQQQQQQQQFQAQQSAMQQQFQAVVQQQQQLQQQQQQQQHLIKLHHQNQQQIQQQQQQLQRIAQLQLQQQQQQQQQQQQQQQQALQAQPPIQQPPMQQPQPPPSQALPQQLQQMHHTQHHQPPPQPQQPPVAQNQPS
notes: Mediator complex subunit 15 (MED15), human, prion-like domain with the Q-rich coiled-coil and Pro-rich regions, residues 141-316; No cleavage step is described; Dimer by SEC, native PAGE and DLS; source: E. coli BL21 Rosetta, pET21b, purified from the soluble fraction (two HisTrap Ni steps, RNase treatment, PD10); not shown: GFP, N-terminal, kept
Consider B1, for which the binding entry is recorded as “no binding (condition: with 2 M urea)”.

(Values after publication PMC7997880, “MED15 prion-like domain forms a coiled-coil responsible for its amyloid conversion and propagation” (Communications Biology, 2021).)
